According to PMC11480233, “Structural insights into the Caprin-2 HR1 domain in canonical Wnt signaling” (The Journal of Biological Chemistry, 2024):
Results are given in words; binding and its absence hold for the method and conditions named. Some binding calls cover weakened binding; strength is not graded here.

Biological target: HR1 domain of human Caprin-2 (aa S102-K351) (human) (UniProt Q6IMN6)
Assay: crystal structure; hCap2_HR1 crystals from 12 to 15% PEG3350, 20 mM lithium chloride; space group C2; two copies in the asymmetric unit; phased by Se-MET SAD; both purified

binding: binds
B1: HR1 domain of human Caprin-2 (aa S102-K351) (domain or fragment, UniProt Q6IMN6 102-351, looked up)
chain: SPLQSTLSSAASPSQAYETYIENGLICLKHKIRNIEKKKLKLEDYKDRLKSGEHLNPDQLEAVEKYEEVLHNLEFAKELQKTFSGLSLDLLKAQKKAQRREHMLKLEAEKKKLRTILQVQYVLQNLTQEHVQKDFKGGLNGAVYLPSKELDYLIKFSKLTCPERNESLSVEDQMEQSSLYFWDLLEGSEKAVVGTTYKHLKDLLSKLLNSGYFESIPVPKNAKEKEVPLEEEMLIQSEKKTQLSKTESVK
notes: Caprin-2, human, HR1 domain construct, residues S102-K351, cloned from full-length human Caprin-2; Modified pET-28a vector with a TEV site in place of the thrombin site; A SeMet triple mutant I217M/L251M/L301M of the same limits was used for phasing; also called hCap2_HR1; Cap2_HR1
